In the supplement of paper PMC12819154, “High-throughput peptide-centric local stability assay extends protein–ligand identification to membrane proteins, tissues and bacteria” (Nature Structural & Molecular Biology, 2025):
The list shows a part of the results. Small differences around the control level are noise.

Protein sequences, listed by entry. Tags and fused reporters are not part of them. Lines headed by an entry give the natural chain unless they say otherwise; changes in a name come on top.
UniProt Q6P8U6: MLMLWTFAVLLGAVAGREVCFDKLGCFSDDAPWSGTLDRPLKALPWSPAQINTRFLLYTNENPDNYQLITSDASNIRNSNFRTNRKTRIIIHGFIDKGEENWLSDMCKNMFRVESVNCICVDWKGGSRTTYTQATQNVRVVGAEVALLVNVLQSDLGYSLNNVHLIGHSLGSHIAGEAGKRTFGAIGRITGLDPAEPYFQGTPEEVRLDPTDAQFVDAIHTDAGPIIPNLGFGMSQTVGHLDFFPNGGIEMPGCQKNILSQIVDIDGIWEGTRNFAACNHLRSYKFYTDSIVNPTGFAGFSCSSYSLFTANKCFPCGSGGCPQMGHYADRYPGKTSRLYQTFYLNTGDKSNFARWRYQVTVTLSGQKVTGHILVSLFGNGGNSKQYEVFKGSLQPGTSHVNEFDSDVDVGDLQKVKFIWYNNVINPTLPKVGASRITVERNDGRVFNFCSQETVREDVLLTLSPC
UniProt Q80ZM7, whole entry: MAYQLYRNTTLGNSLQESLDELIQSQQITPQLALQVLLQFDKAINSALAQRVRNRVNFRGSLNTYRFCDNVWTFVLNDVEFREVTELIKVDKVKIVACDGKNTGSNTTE
UniProt Q8BFY6: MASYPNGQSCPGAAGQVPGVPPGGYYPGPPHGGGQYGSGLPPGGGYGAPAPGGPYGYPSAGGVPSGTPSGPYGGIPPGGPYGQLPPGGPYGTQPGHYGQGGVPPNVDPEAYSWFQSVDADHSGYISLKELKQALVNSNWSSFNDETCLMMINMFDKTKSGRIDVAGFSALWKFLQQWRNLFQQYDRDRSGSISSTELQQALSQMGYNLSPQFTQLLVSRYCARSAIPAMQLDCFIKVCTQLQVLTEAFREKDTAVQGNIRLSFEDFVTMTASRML
UniProt Q6PAM1: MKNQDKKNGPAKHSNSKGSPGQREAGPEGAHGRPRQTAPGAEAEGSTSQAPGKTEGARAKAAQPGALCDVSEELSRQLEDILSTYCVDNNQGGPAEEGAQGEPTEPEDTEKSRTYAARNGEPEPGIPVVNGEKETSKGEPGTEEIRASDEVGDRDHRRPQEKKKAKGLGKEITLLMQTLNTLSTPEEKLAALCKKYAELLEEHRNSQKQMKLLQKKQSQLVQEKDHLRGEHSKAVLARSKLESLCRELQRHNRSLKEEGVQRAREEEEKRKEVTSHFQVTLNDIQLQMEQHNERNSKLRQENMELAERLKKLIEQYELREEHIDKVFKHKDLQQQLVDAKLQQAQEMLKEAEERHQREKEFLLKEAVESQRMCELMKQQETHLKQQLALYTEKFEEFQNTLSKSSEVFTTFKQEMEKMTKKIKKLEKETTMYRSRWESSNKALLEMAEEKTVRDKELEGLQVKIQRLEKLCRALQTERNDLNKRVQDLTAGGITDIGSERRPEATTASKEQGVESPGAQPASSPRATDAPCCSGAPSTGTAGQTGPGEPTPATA
UniProt Q80XL6: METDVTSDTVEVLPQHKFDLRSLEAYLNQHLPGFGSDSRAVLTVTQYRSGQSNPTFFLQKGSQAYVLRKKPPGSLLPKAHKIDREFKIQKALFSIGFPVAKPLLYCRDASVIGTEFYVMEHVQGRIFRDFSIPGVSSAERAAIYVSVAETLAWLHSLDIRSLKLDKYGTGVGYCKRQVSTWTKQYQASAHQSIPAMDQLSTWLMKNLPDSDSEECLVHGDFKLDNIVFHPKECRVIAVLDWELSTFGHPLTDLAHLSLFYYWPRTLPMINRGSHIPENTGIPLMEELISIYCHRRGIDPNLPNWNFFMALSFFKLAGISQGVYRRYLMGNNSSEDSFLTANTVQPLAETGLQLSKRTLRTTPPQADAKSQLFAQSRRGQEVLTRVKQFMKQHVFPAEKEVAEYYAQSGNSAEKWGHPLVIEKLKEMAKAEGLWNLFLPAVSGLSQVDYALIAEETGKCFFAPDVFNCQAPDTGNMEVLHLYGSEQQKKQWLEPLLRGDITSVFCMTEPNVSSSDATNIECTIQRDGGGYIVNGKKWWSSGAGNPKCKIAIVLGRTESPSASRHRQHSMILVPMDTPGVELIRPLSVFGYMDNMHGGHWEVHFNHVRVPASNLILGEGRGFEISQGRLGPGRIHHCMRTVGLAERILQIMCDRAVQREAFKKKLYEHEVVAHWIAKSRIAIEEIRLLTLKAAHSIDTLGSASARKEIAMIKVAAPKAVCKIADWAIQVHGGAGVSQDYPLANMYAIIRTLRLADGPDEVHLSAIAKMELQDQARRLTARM
UniProt Q8BGD8: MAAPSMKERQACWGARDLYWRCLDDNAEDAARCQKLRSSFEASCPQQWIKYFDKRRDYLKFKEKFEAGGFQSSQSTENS
UniProt Q80VC9: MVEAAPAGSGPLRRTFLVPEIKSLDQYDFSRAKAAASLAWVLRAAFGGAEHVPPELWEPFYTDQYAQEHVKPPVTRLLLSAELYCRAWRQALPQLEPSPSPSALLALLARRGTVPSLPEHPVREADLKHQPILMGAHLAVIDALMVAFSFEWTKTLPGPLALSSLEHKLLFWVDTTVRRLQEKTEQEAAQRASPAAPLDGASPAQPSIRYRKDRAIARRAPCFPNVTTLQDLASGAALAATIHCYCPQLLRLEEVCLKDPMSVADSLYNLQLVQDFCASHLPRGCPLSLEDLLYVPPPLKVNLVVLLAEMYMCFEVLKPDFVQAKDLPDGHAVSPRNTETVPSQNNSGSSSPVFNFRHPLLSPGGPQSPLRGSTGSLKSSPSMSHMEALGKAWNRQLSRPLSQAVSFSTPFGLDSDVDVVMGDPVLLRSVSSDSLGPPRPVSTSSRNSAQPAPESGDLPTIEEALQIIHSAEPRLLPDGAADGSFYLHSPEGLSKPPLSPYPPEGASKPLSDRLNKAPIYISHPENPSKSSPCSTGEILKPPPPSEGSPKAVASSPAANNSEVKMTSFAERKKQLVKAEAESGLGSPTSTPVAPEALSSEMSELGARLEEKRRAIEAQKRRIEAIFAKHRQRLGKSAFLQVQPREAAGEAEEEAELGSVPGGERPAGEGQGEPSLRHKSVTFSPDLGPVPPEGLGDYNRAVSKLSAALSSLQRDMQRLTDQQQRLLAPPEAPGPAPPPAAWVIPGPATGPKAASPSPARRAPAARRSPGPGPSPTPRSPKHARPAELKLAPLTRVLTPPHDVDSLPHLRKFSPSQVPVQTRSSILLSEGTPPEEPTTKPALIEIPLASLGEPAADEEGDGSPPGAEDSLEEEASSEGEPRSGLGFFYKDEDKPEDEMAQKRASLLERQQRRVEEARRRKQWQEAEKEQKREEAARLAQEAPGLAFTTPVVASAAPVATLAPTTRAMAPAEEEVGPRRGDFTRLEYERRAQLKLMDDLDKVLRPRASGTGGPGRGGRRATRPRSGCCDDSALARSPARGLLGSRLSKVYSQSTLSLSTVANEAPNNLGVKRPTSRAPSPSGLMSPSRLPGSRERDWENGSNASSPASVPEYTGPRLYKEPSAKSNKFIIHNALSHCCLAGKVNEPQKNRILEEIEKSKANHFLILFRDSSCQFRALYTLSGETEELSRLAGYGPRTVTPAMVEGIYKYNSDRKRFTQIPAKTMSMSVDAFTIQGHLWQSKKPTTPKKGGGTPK
UniProt Q6P5E4: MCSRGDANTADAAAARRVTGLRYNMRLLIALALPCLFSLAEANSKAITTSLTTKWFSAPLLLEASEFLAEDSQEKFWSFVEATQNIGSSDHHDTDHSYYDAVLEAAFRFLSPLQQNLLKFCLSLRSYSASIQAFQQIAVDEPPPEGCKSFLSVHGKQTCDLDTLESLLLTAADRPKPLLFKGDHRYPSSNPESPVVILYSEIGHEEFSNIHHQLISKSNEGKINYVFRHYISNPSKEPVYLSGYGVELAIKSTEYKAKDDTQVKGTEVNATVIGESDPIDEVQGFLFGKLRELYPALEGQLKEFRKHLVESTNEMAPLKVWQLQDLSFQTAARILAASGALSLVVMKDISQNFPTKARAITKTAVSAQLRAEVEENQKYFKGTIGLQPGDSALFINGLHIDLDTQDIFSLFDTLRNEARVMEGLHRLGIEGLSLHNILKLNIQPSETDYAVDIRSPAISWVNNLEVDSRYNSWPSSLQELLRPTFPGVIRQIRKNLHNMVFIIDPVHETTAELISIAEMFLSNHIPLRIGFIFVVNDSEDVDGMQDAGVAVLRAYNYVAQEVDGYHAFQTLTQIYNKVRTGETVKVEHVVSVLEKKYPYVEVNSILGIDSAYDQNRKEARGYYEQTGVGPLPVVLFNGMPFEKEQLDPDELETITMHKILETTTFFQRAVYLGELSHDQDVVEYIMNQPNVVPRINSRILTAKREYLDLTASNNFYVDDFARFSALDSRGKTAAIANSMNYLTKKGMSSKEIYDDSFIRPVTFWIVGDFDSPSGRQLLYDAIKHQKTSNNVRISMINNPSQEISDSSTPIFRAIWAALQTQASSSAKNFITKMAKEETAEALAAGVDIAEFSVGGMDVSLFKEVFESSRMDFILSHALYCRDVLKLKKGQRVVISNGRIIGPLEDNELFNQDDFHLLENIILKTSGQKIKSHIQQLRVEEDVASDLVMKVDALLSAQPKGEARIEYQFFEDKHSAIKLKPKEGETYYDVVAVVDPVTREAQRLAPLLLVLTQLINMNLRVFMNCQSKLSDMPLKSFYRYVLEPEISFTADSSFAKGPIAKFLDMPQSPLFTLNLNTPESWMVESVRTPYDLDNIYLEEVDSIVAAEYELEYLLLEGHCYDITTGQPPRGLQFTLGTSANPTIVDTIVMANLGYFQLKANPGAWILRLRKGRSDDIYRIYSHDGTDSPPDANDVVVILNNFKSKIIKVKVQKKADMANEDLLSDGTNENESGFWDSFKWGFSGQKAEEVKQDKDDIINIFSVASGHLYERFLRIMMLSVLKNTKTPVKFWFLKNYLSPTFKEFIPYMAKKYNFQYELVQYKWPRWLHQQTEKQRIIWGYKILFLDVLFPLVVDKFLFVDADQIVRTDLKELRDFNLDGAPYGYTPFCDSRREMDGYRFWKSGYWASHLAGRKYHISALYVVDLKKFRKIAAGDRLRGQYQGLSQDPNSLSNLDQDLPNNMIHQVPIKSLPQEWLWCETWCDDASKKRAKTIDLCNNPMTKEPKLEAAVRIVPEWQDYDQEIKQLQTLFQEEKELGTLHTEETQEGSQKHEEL
UniProt Q6PAR5: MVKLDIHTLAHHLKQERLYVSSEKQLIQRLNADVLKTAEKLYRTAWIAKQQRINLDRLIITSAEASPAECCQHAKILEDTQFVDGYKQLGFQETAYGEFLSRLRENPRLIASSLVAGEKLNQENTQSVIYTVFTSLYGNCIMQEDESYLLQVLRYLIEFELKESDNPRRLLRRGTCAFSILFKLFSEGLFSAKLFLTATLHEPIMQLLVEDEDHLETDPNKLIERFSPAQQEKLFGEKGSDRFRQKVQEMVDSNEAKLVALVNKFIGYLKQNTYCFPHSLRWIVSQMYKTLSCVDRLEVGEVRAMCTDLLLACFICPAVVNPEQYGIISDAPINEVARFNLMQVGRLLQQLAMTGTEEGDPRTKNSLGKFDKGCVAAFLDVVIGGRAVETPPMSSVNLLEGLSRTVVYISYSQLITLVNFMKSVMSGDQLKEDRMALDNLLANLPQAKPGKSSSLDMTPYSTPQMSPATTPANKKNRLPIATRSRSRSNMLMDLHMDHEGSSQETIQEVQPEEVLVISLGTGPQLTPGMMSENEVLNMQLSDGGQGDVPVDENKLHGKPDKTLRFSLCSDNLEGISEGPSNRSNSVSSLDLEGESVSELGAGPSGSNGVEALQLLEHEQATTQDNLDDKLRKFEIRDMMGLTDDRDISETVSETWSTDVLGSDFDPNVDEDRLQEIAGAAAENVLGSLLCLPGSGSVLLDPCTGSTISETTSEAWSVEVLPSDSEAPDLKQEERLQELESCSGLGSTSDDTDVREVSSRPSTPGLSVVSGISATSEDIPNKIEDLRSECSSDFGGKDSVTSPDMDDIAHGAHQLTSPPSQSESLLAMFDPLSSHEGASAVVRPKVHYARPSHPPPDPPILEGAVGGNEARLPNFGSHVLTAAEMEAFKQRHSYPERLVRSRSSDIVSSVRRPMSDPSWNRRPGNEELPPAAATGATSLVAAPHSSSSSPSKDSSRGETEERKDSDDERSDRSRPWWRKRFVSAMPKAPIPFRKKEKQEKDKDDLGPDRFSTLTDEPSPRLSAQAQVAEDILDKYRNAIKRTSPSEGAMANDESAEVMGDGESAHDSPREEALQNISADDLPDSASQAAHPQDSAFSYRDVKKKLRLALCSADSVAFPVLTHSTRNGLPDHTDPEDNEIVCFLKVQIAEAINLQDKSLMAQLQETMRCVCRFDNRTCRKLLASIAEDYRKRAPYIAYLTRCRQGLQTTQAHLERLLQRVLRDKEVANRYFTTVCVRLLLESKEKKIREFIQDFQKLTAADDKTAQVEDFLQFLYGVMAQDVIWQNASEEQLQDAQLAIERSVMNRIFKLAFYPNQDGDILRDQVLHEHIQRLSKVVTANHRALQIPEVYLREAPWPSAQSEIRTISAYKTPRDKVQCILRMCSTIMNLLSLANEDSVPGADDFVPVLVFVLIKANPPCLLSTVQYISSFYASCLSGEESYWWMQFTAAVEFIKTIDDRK

Compound: CN[C@@H]1C[C@H]2O[C@@](C)([C@@H]1OC)n1c3ccccc3c3c4c(c5c6ccccc6n2c5c31)C(=O)NC4 [staurosporine]
Assay: log2 fold change of pooled soluble protein (PISA), ligand vs vehicle (log2 ratio); higher = more thermally stabilized
Settings: ligand concentration: 20 uM; assay format: PISA pool 52.9/55.5/58.6 C

**Q.** For UniProt Q80X50, which “log2 fold change of pooled soluble protein” value (shortened to “log2 fold change”) is on record?
**A.** -0.0296

**Q.** For UniProt Q6PEE2, which “log2 fold change” value is on record?
**A.** 0.0585

**Q.** How did the “log2 fold change” value turn out when UniProt Q6P8U6 was run?
**A.** 0.0281

**Q.** Which “log2 fold change” value does the source give for UniProt Q6PB93 here?
**A.** 0.171

**Q.** UniProt Q80XK6 was tested. Which “log2 fold change” value did it give?
**A.** -0.142

**Q.** With UniProt Q6ZQ38 as the target, how does the “log2 fold change” value read?
**A.** 0.0363

**Q.** UniProt Q6P5H2 was tested. Which “log2 fold change” value did it give?
**A.** -0.0569

**Q.** How did the “log2 fold change” value turn out when UniProt Q80ZM7 was run?
**A.** 0.0109

**Q.** UniProt Q7TN29 was tested. Which “log2 fold change” value did it give?
**A.** 0.136

**Q.** UniProt Q6NXN1 was tested. Which “log2 fold change” value did it give?
**A.** -0.0736

**Q.** Which “log2 fold change” value does the source give for UniProt Q6P9R2 here?
**A.** 0.179

**Q.** UniProt Q80VJ2 was tested. Which “log2 fold change” value did it give?
**A.** -0.0419

**Q.** UniProt Q8BFY6 was tested. Which “log2 fold change” value did it give?
**A.** -0.141

**Q.** With UniProt Q80W54 as the target, how does the “log2 fold change” value read?
**A.** 0.0352

**Q.** For UniProt Q7TQ95, which “log2 fold change” value is on record?
**A.** -0.185

**Q.** How did the “log2 fold change” value turn out when UniProt Q80ZU5 was run?
**A.** -0.0417

**Q.** Which “log2 fold change” value does the source give for UniProt Q6PAM1 here?
**A.** 0.0513

**Q.** With UniProt Q7TPV4 as the target, how does the “log2 fold change” value read?
**A.** -0.0166

**Q.** For UniProt Q7TT28, which “log2 fold change” value is on record?
**A.** -0.274

**Q.** UniProt Q78PY7 was tested. Which “log2 fold change” value did it give?
**A.** -0.119

**Q.** With UniProt Q80XL6 as the target, how does the “log2 fold change” value read?
**A.** 0.0144

**Q.** UniProt Q6P1B1 was tested. Which “log2 fold change” value did it give?
**A.** -0.0811

**Q.** For UniProt Q8BGD8, which “log2 fold change” value is on record?
**A.** 0.0281

**Q.** UniProt Q80VC9 was tested. Which “log2 fold change” value did it give?
**A.** -0.0254

**Q.** Which “log2 fold change” value does the source give for Q80T19;Q9EQ21 here?
**A.** 0.272

**Q.** UniProt Q6NZF1 was tested. Which “log2 fold change” value did it give?
**A.** -0.0906

**Q.** With UniProt Q80Y81 as the target, how does the “log2 fold change” value read?
**A.** 0.00266

**Q.** For UniProt Q80U44, which “log2 fold change” value is on record?
**A.** 0.011

**Q.** For UniProt Q7TMK9, which “log2 fold change” value is on record?
**A.** 0.067

**Q.** With UniProt Q80SU7 as the target, how does the “log2 fold change” value read?
**A.** 0.0122

**Q.** For UniProt Q8BGD9, which “log2 fold change” value is on record?
**A.** 0.000999

**Q.** UniProt Q6P6I6 was tested. Which “log2 fold change” value did it give?
**A.** 0.179

**Q.** Which “log2 fold change” value does the source give for UniProt Q6PIP5 here?
**A.** 0.108

**Q.** For UniProt Q6P5E4, which “log2 fold change” value is on record?
**A.** 0.0311

**Q.** For UniProt Q80U63, which “log2 fold change” value is on record?
**A.** 0.54

**Q.** UniProt Q6PAR5 was tested. Which “log2 fold change” value did it give?
**A.** -0.0175
